In US12474342B2, “Methods for treating cancer and the use of biomarkers as a predictor of clinical sensitivity to therapies” (CELGENE CORPORATION, priority 2016, dated 2025):
No dose or concentration is given here for some results.

Assays:
Format in all cases: cell-based, human
[1] = test system: KASUMI-1 cells; assay: Apoptosis (caspase 3/7 activation), Kasumi-1; conditions: Kasumi-1, rank among nine AML cell lines
[2] = test system: HL-60 cells; assay: Apoptosis (caspase 3/7 activation), HL-60; conditions: HL-60, rank among nine AML cell lines
[3] = test system: F36-P cells; assay: Apoptosis (caspase 3/7 activation), F36-P; conditions: rank among nine AML cell lines
[4] = test system: HNT-34 cells; assay: Apoptosis (caspase 3/7 activation), HNT-34; conditions: HNT-34, rank among nine AML cell lines
[5] = test system: OCI-AML2 cells; assay: Apoptosis (caspase 3/7 activation), OCI-AML2; conditions: OCI-AML2, rank among nine AML cell lines
[6] = test system: ML-2 cells; assay: Apoptosis (caspase 3/7 activation), ML-2; conditions: ML-2, rank among nine AML cell lines

## O=C1CCC(N2Cc3cc(CNC(=O)C(F)(F)c4ccc(Cl)cc4)ccc3C2=O)C(=O)N1 (stereo not drawn) [Compound D, 2-(4-chlorophenyl)-N-((2-(2,6-dioxopiperidin-3-yl)-1-oxoisoindolin-5-yl)methyl)-2,2-difluoroacetamide]
[1]
  Rank at 24 hr: 7
  Rank at 48 hr: 7
[2]
  Rank at 24 hr: 3
  Rank at 48 hr: 2
[3]
  Rank at 24 hr: 8
  Rank at 48 hr: 8
[4]
  Rank at 24 hr: 1
  Rank at 48 hr: 1
[5]
  Rank at 24 hr: 6
  Rank at 48 hr: 5
[6]
  Rank at 24 hr: 2
  Rank at 48 hr: 3
